Experimental data published in publication PMC3798694.
No constants are given. Whether binding was seen depends on the method and setting. Binding seen in cells or lysates may run through a third protein. Some results given as binding are weak or reduced against the parent protein; the word gives no strength. Sequences can lack the tags named with a protein.

By UniProt entry, the sequences of proteins in these tests, tags left out.
UniProt A0ACD7PP40: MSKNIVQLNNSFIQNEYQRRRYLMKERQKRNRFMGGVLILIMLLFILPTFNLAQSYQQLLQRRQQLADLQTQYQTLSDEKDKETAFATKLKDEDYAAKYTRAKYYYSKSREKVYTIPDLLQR

T1: PBP2x-S (Strep-tagged full length PBP2x of Streptococcus pneumoniae) (S. pneumoniae R6) (UniProt P59676)
T1 sequence: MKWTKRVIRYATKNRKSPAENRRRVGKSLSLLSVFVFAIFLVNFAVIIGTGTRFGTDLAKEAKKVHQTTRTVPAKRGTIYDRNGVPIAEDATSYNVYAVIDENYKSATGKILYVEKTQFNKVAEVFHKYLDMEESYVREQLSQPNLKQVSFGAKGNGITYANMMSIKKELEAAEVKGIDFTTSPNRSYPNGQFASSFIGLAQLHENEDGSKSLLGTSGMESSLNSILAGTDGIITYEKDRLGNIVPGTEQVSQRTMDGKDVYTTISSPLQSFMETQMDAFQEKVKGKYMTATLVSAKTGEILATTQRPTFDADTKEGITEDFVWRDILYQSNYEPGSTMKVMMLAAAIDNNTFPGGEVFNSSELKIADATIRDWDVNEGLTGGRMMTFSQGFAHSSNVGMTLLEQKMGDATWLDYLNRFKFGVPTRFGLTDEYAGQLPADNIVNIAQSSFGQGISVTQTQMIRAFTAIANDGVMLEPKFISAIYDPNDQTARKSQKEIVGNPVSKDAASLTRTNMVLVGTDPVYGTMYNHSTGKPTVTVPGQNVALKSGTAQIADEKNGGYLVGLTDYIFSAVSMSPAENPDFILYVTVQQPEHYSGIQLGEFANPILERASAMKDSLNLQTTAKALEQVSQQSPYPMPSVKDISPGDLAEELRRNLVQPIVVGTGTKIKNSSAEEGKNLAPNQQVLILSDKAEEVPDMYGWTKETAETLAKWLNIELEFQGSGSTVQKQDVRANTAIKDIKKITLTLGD

B1: FtsL (untagged full length FtsL of Streptococcus pneumoniae) (protein, UniProt Q8DR70 1-105)
chain: MAEKMEKTGQILQMQLKRFSRVEKAFYFSIAVTTLIVAISIIFMQTKLLQVQNDLTKINAQIEEKKTELDDAKQEVNELLRAERLKEIANSHDLQLNNENIRIAE

Molecular target: T1, PBP2x-S (Strep-tagged full length PBP2x of Streptococcus pneumoniae) (S. pneumoniae R6)
Assay: pull-down; Proteins co-expressed in one E. coli strain; DDM-solubilised membranes or Ni-NTA eluate; Strep-tagged protein held on Strep-Tactin (first or second step), eluted with 2.5 mM desthiobiotin; HNG buffer, 0.3 mM DDM; Coomassie SDS-PAGE, Western blot

Row | Molecule | binding
1 | DivIC (untagged full length DivIC of Streptococcus pneumoniae) (from UniProt A0ACD7PP40 1-122) | binds
2 | B1 | binds
